# Laboratory results published in the supplement of paper PMC12889115.
# This is one part of the list. Values are raw readings; no control value is given beside them.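 First-pass screen: polymyxin B was added at a level that permeabilizes the Salmonella outer membrane while sparing the inner membrane. DMSO wells, with and without polymyxin B, defined maximum growth. Because plates differed from one another, each plate's data were ranked separately and the compounds with the lowest OD600 were carried forward as hits.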
# Tested on: Salmonella enterica serovar Typhimurium SL1344
# Assay: bacterial growth OD600 after 18 h with compound and polymyxin B; higher = more bacterial growth (less inhibition)
# Settings: 50 µM, Mueller-Hinton broth
SMILES,bacterial growth OD600 (polymyxin B 1 µg/mL),bacterial growth OD600 (polymyxin B 0.75 µg/mL)
Fc1cccc(NC2CCCN(Cc3ccc4nsnc4c3)C2)c1 (stereo not drawn),0.629,
CC(=O)Nc1ccc(CN2CCC(C(Cc3ccccc3Cl)N(C)C(=O)c3ccco3)CC2)cc1 (stereo not drawn),,0.76
Cc1cccn2c(CN3CCN(C)C[C@@H]3C(C)C)c(C(=O)N(C)CCc3ccccc3)nc12,0.992,
COc1ccc(-n2ncc3c2CC(C)(C)CC3NC(=O)c2cnsn2)cc1 (stereo not drawn),0.787,
COc1ccc(OC)c(C(=O)N2CCC(n3nccc3NC(=O)CC(C)C)CC2)c1,0.887,
COCCN1CCCC2(CCN(C(=O)Nc3ccc(C)cc3)C2)C1=O (stereo not drawn),,0.828
C=CCC(=O)N1CCC(n2nccc2NC(=O)c2ccc3c(c2)OCO3)CC1,0.863,
Cc1ccc(Oc2ncccc2CNC(=O)c2ccccn2)c(F)c1F,0.815,
O=C(NCCc1nc(-c2ccccc2)no1)C1CCC(=O)N(C2CC2)C1 (stereo not drawn),0.839,
O=C1CCC(C(=O)N2CCN(C3CCCCC3)C(=O)C2)CN1CCc1ccc(Cl)cc1 (stereo not drawn),0.897,
O=C(NC1CCCN(CC2CCCCC2)C1)c1ccncc1 (stereo not drawn),0.891,
C=C(C)CNC(=O)CC1C(=O)NCCN1Cc1ccc(F)cc1Cl (stereo not drawn),0.789,
COc1cc(CN2CCCC(Nc3ccc(F)cc3)C2)ccc1O (stereo not drawn),0.932,
Cc1ccc(Oc2ncccc2CNC(=O)c2csc(C)n2)cn1,0.972,
COc1ccc(CN2CCOc3ccc(C(O)Cc4ccccc4)cc3C2)cc1F (stereo not drawn),,0.005
CSCCC(=O)NC1CC(C)(C)Cc2nc(N3CCC(O)CC3)ncc21 (stereo not drawn),,0.847
CCC(=O)N(C)C(Cc1ccc(F)cc1F)C1CCN(C(=O)/C=C/c2cc(F)ccc2F)CC1 (stereo not drawn),,0.51

SMILES,bacterial growth OD600 (polymyxin B 1 µg/mL),bacterial growth OD600 (polymyxin B 0.75 µg/mL)
CCC1CN(CCNC(=O)C(C)c2ccccc2)Cc2cc(OC)ccc2O1 (stereo not drawn),,0.971
O=C(c1ccccc1)N1CCOC(CCc2ccccc2)C1 (stereo not drawn),,0.775
CC(=O)N1CCCN(C(=O)c2csc3nc(-c4cc(C)ccc4C)cn23)CC1,,0.856
CCN(CC)C(=O)C1CCC(=O)N(CCc2cccc(F)c2)C1 (stereo not drawn),0.929,
CCN(CC)CCNC(=O)c1cc(COc2ccccc2OC)on1,0.907,
O=C1N(Cc2ccc(F)cc2)CCCC1(O)CN1CCC(CO)CC1 (stereo not drawn),1.06,
Cc1ccccc1C(NC1CCN(c2ccc(NC(=O)c3ccccc3F)cc2)CC1)c1ccncc1 (stereo not drawn),,0.003
Fc1ccc(-n2cccn2)c(CNCc2cccnc2N2CCOCC2)c1,0.832,
O=C1CCN(c2ccc(-c3nc(COc4ccccc4)no3)cn2)CCN1,0.841,
COC(=O)[C@@H]1CCCN1C(=O)Cc1ccc(N2CCC(NCc3ccsc3)CC2)cc1,,0.866
COc1ccc(CN2CC[C@@H](N3CCC(O)CC3)[C@H](O)C2)cc1C,1.07,
COCCCC1CCN(Cc2nc(-c3ccc(OC)cc3)no2)CC1,0.873,
c1ccc(CN2CCC(NC3CCCN(c4nc5ccccc5s4)C3)CC2)nc1 (stereo not drawn),1.1,
O=C(CCN1Cc2ccccc2OC(c2ccccc2F)C1)N1CC2CCC1C2 (stereo not drawn),,0.675
Fc1ccccc1-c1cnnc(N2CCCN(c3ncccn3)CC2)n1,1.05,
CCO[C@H]1[C@H](NC(=O)c2cccnc2)c2ccccc2C12CCN(C(=O)CCCC(=O)OC)CC2,,0.851

# Retrieved by compound from above, 2 records:
SMILES,bacterial growth OD600 (polymyxin B 1 µg/mL),bacterial growth OD600 (polymyxin B 0.75 µg/mL)
CC(=O)N1CCCN(C(=O)c2csc3nc(-c4cc(C)ccc4C)cn23)CC1,,0.856
O=C1CCN(c2ccc(-c3nc(COc4ccccc4)no3)cn2)CCN1,0.841,
